Our source for the binding values is US20230338424A1 (LENTIGEN TECHNOLOGY, published 2023).

The assay deals with T1, recombinant human CD123-Fc (human, UniProt P26951 19-305, limits assumed).
T1 construct: Treated as one molecule; also called CD123-Fc peptide (Novoprotein); recombinant IL3R-alpha Fc-tagged; not shown: Fc tag
T1 sequence (looked up): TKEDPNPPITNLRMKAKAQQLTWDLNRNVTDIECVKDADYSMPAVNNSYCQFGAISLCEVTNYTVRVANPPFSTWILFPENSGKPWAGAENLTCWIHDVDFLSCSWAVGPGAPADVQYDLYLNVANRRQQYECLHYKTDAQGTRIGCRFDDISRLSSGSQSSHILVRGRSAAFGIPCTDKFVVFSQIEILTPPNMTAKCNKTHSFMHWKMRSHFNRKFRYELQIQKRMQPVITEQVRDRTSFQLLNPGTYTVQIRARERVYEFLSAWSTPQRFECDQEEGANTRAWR
The assay can be described thus: yeast display, MACS enrichment then FACS sort with 1 ug/ml CD123-Fc, anti-human Fc PE.

No constants are given. Whether binding was seen depends on the method and setting. Some entries that bind do so weakly or less than the wild type. Tags and fused reporters may be left off the sequences shown.

B1: CD123 binder MT-32 (scFv)
scFv: QVQLQQSGPGLVKPSQTLSLTCAISGDSVSSNSAAWNWIRQSPSRGLEWLGRTYYRSKWYNDYAVSVKSRITINPDTSKNQFSLQLNSVTPEDMAVYYCARGVDSSFDYWGQGTLVTVSSGGGGSGGGGSGGGGSQSVVTQPPSVSAAPGQSVTISCSGSSSTVGDNYVSWYQQLPGTAPKLLIFDDYKRPSGVPDRFSGSQSGTSASLVITGLQAEDEADYYCQSYDSSLSGYVFGPGTKVTVLG
On to B1, for which the binding result is “binds”.
